± gives the standard deviation of the averaged measurements. The entries are a selection whose mix differs from that of the whole data set. Most values lie at the level of the controls, where differences are scatter.

By UniProt entry, the sequences of proteins in these tests, tags left out. Where a name states a change or a piece, a line headed by the entry shows the natural chain unless it says otherwise.
UniProt Q92626: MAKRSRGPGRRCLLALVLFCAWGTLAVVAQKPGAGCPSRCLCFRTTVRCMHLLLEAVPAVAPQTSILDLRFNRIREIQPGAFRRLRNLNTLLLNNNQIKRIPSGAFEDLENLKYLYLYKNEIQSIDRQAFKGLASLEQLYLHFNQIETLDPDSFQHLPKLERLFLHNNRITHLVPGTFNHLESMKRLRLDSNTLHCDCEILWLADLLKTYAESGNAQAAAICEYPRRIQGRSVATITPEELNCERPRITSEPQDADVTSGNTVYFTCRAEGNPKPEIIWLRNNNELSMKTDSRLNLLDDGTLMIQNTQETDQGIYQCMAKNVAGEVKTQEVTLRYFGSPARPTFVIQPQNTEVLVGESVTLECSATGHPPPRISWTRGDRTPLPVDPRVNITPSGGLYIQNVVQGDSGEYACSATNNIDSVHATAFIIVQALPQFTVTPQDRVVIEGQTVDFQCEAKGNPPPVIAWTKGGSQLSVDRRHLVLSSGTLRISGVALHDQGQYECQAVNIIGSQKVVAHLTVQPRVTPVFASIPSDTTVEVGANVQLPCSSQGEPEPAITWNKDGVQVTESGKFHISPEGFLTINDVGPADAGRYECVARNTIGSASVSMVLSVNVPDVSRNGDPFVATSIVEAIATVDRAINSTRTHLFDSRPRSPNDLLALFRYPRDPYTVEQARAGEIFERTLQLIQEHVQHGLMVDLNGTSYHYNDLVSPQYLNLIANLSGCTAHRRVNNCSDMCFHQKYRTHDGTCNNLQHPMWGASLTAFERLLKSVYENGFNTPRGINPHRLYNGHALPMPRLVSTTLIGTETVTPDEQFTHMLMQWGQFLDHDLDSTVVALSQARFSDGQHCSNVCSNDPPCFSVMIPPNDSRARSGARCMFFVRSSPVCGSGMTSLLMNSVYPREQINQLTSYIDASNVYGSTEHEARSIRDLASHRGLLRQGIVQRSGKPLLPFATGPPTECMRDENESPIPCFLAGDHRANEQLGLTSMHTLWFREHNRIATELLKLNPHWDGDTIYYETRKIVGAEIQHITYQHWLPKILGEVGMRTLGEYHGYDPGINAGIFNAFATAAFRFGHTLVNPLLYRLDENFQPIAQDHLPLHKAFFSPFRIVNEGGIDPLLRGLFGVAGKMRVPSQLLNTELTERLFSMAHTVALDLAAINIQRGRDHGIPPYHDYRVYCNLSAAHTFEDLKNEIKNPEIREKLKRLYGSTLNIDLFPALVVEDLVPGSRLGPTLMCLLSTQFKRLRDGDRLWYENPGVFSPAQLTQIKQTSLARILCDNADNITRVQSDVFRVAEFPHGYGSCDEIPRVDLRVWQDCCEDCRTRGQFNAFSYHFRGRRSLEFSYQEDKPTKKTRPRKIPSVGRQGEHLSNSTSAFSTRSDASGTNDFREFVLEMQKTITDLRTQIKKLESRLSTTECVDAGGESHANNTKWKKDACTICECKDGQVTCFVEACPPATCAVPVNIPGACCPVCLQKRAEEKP
UniProt Q92882: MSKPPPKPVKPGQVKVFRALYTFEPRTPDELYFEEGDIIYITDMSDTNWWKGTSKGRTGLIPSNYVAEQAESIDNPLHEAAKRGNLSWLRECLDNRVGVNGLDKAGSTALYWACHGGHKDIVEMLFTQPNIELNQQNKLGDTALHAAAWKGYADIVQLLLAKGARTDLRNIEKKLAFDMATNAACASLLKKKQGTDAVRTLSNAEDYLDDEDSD
UniProt Q8WU79: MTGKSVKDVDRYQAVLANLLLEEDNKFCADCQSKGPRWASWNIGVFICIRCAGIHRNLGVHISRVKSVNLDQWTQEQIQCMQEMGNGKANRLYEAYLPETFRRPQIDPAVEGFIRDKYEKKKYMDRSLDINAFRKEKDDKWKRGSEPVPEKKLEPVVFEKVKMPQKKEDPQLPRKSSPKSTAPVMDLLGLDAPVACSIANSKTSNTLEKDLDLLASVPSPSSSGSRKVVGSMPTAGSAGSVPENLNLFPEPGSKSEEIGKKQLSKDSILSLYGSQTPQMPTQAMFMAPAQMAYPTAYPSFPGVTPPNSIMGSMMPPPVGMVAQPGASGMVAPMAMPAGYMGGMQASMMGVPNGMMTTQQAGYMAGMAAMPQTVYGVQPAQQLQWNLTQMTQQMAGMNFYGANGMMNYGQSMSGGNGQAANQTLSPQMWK
UniProt Q92834: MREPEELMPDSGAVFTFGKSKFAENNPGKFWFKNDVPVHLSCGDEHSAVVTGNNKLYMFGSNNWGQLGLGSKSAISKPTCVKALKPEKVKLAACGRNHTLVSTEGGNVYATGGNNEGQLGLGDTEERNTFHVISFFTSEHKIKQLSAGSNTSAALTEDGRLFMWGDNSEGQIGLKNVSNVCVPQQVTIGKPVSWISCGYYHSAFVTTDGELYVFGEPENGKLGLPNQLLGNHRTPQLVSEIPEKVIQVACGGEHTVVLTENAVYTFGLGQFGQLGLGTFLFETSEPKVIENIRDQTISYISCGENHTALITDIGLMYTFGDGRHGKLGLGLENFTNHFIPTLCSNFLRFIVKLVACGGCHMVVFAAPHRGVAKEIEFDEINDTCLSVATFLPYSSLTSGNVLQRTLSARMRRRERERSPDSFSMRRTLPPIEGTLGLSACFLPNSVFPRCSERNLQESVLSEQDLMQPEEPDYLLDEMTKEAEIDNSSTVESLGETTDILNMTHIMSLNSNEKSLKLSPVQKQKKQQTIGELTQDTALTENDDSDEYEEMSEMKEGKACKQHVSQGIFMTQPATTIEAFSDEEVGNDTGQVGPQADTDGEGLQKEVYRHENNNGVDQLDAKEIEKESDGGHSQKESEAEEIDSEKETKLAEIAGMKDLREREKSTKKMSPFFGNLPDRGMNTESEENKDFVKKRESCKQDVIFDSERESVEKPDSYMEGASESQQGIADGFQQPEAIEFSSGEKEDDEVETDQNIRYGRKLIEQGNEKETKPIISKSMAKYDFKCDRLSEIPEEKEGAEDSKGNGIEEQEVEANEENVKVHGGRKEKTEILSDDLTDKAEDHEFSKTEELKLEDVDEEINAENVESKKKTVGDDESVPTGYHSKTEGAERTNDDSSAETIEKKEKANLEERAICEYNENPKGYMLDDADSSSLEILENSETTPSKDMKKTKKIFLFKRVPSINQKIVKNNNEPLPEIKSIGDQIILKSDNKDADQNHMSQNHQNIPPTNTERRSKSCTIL
UniProt Q8WXX5: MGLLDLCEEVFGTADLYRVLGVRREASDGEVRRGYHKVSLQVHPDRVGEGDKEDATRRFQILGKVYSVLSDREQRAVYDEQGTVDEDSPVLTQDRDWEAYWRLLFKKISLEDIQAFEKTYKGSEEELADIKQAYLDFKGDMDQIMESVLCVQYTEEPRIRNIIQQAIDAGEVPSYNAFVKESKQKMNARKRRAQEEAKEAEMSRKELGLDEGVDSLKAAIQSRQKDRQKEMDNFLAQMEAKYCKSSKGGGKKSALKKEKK
UniProt Q8TD16, whole entry: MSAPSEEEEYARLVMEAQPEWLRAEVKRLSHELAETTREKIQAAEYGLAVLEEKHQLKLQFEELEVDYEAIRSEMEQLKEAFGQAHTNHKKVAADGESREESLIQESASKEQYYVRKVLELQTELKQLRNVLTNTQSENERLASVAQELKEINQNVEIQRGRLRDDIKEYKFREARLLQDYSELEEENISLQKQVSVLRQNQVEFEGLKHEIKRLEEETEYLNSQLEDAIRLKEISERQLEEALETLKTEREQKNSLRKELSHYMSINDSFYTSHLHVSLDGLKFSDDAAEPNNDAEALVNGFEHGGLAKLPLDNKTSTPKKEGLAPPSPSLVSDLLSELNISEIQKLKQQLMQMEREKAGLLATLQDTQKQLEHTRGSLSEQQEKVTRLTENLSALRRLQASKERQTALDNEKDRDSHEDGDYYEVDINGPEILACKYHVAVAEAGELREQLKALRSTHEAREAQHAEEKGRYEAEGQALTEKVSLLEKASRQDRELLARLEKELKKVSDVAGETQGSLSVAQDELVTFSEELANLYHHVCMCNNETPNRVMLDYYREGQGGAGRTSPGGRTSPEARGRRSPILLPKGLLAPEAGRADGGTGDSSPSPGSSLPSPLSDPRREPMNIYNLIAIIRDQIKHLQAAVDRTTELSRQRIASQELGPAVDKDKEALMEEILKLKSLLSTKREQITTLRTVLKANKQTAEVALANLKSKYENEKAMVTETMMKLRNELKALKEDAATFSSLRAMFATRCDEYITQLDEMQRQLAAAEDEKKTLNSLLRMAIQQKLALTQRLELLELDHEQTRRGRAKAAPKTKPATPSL
UniProt Q8WUY8: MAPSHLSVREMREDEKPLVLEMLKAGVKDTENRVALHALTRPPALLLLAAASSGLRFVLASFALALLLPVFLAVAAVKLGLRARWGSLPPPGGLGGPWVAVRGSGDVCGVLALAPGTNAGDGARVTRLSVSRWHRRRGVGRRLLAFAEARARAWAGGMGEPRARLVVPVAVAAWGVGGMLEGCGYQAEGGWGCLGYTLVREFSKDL
UniProt Q92747, whole entry: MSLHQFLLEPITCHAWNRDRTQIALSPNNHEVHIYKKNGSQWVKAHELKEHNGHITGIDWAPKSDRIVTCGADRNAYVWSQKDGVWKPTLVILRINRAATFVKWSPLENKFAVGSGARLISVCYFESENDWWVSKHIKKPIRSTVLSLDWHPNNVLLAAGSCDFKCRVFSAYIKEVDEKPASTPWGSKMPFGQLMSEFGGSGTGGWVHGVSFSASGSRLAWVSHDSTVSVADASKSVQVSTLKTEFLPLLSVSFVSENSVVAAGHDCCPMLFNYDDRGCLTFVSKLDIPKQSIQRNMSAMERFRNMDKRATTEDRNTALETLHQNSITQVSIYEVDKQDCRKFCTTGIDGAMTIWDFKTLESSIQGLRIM
UniProt Q8TEQ6: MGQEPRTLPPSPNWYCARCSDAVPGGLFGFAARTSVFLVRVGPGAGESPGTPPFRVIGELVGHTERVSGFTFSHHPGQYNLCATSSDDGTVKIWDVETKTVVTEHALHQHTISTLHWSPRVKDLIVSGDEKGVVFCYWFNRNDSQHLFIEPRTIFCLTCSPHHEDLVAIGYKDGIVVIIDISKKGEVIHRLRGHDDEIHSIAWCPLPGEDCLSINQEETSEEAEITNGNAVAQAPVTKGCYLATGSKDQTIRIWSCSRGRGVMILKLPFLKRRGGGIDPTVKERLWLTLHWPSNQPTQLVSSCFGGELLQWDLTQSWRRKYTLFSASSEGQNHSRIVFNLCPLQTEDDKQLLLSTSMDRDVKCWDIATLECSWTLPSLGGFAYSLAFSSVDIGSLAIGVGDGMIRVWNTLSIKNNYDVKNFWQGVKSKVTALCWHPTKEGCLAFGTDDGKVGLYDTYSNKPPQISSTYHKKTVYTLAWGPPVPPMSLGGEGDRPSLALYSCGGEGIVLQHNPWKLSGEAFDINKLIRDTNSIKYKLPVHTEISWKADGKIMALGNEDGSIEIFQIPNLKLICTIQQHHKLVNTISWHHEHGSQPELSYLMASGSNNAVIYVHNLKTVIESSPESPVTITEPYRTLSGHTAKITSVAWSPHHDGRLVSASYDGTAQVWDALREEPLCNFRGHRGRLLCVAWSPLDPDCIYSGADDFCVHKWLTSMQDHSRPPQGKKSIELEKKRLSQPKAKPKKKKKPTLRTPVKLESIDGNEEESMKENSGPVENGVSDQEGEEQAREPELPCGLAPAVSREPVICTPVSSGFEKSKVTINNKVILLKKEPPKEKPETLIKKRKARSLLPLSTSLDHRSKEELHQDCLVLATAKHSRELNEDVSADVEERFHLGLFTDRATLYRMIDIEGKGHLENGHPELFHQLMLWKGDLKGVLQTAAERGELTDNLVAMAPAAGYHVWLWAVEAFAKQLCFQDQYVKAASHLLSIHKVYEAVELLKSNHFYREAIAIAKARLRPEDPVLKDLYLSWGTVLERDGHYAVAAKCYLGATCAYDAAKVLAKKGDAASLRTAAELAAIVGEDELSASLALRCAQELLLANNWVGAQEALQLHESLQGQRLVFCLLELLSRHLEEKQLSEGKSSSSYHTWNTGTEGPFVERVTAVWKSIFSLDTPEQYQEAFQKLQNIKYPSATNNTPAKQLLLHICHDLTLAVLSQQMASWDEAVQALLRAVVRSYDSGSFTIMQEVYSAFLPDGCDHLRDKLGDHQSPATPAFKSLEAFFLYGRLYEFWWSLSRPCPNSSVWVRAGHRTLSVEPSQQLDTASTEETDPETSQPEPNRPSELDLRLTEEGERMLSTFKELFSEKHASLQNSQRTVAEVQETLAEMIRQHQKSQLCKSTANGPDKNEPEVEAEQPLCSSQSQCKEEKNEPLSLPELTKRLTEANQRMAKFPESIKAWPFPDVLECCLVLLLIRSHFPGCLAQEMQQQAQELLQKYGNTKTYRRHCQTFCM

For 38 targets, NP40-soluble protein abundance results are on record in the supplement of paper PMC6411743.

Compound in this experiment: Nc1ncnc2c1ncn2[C@@H]1O[C@H](COP(=O)(O)OP(=O)(O)OP(=O)(O)O)[C@@H](O)[C@H]1O [adenosine triphosphate]
Briefly: NP40-soluble protein abundance relative to vehicle (solubility fold change) (ratio); higher = more soluble protein in presence of ATP. Particulars: concentration: 0.1mM. The method in brief:
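Eight concentrations, 0.1 to 10 mM, were tested on Jurkat crude lysate for 10 min at room temperature and then 3 min at 37 °C, in three independent experiments. The lysate was solubilised with 0.8% NP40 and benzonase, ultracentrifuged, and the supernatant TMT-labelled for LC-MS/MS. Each value is the fold change against the detergent-processed vehicle in its own replicate, from vsn-normalised intensities.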
For UniProt Q969U7 and related entries, the NP40-soluble protein abundance was found to be 1.03 ± 0.067.
For the target PXDN (UniProt Q92626), the NP40-soluble protein abundance stood at 1.01 ± 0.038.
Then UniProt Q8TCD5 and related entries, with 1.02 ± 0.033; and PNPLA2 (UniProt Q96AD5), with 1.1 ± 0.11.
As for OSTF1 (UniProt Q92882), the NP40-soluble protein abundance stood at 1 ± 0.011.
The figure for MRPS31 (UniProt Q92665) is 0.933 ± 0.094.
Then UniProt Q96B36 and related entries, with 0.856 ± 0.11.
Then UniProt Q8WU79 and related entries, with 0.923 ± 0.041; and TBRG4 (UniProt Q969Z0), with 0.995 ± 0.045; and RPGR (UniProt Q92834), with 1.04 ± 0.045.
As to GTF2H4 (UniProt Q92759), the NP40-soluble protein abundance is 1.03 ± 0.057.
Then DNAJC9 (UniProt Q8WXX5), with 0.962 ± 0.01; and UniProt Q96AQ6 and related entries, with 0.997 ± 0.011.
For the target C18orf32 (UniProt Q8TCD1), the NP40-soluble protein abundance was 0.909 ± 0.12.
On to NT5C3B (UniProt Q969T7), for which the NP40-soluble protein abundance is 1.02 ± 0.013.
Turning to NSUN6 (UniProt Q8TEA1), the NP40-soluble protein abundance was found to be 1.04 ± 0.051.
The figure for UniProt Q8TD16-2|Q8TD16 is 0.9954 ± 0.0018; for PIGO (UniProt Q8TEQ8) it is 1.05 ± 0.056.
Then UniProt Q92833 and related entries, with 1.11 ± 0.16; and RTN4IP1 (UniProt Q8WWV3), with 1.01 ± 0.043.
In the case of UniProt Q8WUY8 and related entries, the NP40-soluble protein abundance is 1.08 ± 0.045.
Take UniProt Q969F9 and related entries: the NP40-soluble protein abundance came out at 0.992 ± 0.066.
As for UniProt Q969M3 and related entries, the NP40-soluble protein abundance stood at 0.969 ± 0.15.
In the case of UniProt Q8TED0 and related entries, the NP40-soluble protein abundance was 1.08 ± 0.055.
Then ARPC1A (UniProt Q92747), with 1.03 ± 0.1; and UniProt Q8WYP5 and related entries, with 1.04 ± 0.026.
Then UniProt Q8TDY2 and related entries, with 1.03 ± 0.039.
On to UniProt Q96B23-2, for which the NP40-soluble protein abundance came to 0.968 ± 0.026.
Then UniProt Q92804 and related entries, with 0.946 ± 0.11; and NUP133 (UniProt Q8WUM0), with 1.06 ± 0.067; and UniProt Q8TCZ2 and related entries, with 0.931 ± 0.056.
The figure for UniProt Q8TEB1 and related entries is 0.995 ± 0.098; for ELMO1 (UniProt Q92556) it is 1.02 ± 0.05; for UniProt Q8WX93 and related entries it is 1.02 ± 0.056.
The figure for GEMIN5 (UniProt Q8TEQ6) is 1.04 ± 0.048; for UniProt Q96AT9 and related entries it is 1.03 ± 0.074.
In the case of PIEZO1 (UniProt Q92508), the NP40-soluble protein abundance is 1.02 ± 0.16.
For the target UniProt Q92576 and related entries, the NP40-soluble protein abundance stood at 1 ± 0.03.
